Source: US20110135573A1, “METALLOPROTEINASE 9 AND METALLOPROTEINASE 2 BINDING PROTEINS” (DYAX CORP., priority 2009, published 2011)

Target: MMP-9 (PMA-activated) (Homo sapiens (Human))
Assay: table heading; found by phage selection on biotinylated MMP-9

| Binder | binding |
| --- | --- |
| M0076-D03 (Fab, V domains shown) VH: EVQLLESGGGLVQPGGSLRLSCAASGFTFSLYRMNWVRQAPGKGLEWVSYIGSSGGATAYADSVKGRFTISRDNSKNTLYLQMNSLRAEDTAVYYCARGAWYLDSWGQGTLVTVSS VL: DIQMTQSPSSLSASVGDRVTITCRASQGIRNDLDWYQQKPGTAPKRLIYSASNLQSGVPSRFSGSGSGTEFTLTISNLQPEDLATYFCLQHNSFPLTFGQGTKVEIK | binds |
| M0078-G07 (Fab, V domains shown) VH: EVQLLESGGGLVQPGGSLRLSCAASGFTFSSYTMEWVRQAPGKGLEWVSWISPSGGYTFYADSVKGRFTISRDNSKNTLYLQMNSLRAEDTALYYCARGYSYGSIDLWGRGTLVTVSS VL: DIQMTQSPGTLSVSPGERATLSCRASQSVSSDLAWYQHKPGQAPRLLIYGVSTKATGVPARFSGSGSGTEFTLTISSLQSEDLAVYYCQQYHNWPPLTFGGGTKVEIK | binds |

Results are given in words; binding and its absence hold for the method and conditions named. Binding calls can cover weak binding; strength is not graded here.
